No constants are given. Whether binding was seen depends on the method and setting. Binding seen in cells or lysates may run through a third protein. Some entries that bind do so weakly or less than the wild type.
Molecular target: T1, RAD21 (endogenous) (human (endogenous in OVCAR8, OVCAR5 and HEY)) (UniProt O60216)
T1 sequence: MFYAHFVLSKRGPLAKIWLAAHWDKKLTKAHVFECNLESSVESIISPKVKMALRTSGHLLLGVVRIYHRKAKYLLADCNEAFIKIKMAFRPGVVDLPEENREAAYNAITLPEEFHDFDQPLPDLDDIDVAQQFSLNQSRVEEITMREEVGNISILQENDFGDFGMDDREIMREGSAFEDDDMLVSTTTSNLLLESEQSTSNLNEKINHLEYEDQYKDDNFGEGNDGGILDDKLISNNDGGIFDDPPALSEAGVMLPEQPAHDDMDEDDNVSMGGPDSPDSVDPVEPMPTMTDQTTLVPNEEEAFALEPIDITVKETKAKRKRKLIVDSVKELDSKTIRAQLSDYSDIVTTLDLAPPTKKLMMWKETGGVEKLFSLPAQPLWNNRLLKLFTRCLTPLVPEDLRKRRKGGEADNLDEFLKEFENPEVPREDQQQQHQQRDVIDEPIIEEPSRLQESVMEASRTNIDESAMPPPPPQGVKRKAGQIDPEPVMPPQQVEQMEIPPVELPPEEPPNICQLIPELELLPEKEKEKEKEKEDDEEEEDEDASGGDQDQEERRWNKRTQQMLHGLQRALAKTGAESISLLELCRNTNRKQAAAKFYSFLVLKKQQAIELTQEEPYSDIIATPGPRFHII
Test: co-IP; endogenous proteins in cell extracts of OVCAR8, OVCAR5 and HEY cells; IP with anti-RAD21, anti-TEAD4 or anti-IgG; IP lysis buffer 50 mM Tris-HCl, 150 mM NaCl, 1.0% NP-40; protein G Dynabeads overnight at 4°C; immunoblotting

Sequences of proteins named here, by UniProt entry; tags and fusion partners are left off.
UniProt Q13547: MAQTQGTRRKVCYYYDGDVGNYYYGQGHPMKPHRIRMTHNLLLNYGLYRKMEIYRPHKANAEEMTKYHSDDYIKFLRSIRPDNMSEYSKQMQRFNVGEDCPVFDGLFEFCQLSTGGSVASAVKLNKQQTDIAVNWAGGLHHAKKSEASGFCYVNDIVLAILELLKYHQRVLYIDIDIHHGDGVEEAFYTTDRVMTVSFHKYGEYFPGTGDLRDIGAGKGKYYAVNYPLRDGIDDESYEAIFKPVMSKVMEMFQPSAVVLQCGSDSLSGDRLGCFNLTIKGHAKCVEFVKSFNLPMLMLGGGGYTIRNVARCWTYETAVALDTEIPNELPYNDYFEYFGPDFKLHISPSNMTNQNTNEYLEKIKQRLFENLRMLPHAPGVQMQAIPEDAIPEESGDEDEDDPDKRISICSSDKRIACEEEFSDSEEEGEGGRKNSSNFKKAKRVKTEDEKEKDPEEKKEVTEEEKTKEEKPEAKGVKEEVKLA
UniProt P46937: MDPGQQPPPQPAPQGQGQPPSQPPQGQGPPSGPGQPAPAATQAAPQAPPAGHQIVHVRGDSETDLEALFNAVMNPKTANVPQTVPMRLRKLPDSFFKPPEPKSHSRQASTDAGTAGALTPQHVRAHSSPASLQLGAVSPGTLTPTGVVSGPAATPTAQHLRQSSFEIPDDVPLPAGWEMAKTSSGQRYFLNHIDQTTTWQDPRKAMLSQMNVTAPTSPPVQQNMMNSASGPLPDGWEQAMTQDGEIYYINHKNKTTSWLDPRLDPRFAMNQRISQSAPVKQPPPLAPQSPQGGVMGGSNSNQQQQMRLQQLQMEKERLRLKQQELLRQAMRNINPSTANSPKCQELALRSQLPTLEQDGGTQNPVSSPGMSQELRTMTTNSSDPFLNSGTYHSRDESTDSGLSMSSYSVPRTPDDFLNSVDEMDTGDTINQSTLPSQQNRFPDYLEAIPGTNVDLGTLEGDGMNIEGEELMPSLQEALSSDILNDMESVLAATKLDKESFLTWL

| binding | Substance |
| --- | --- |
| binds | HDAC1 (endogenous) (from UniProt Q13547 1-482) |
| binds | YAP (endogenous) (from UniProt P46937 1-504) |
